Data published in US20080193619A1, “Use of Fullerence C60 as an Oil Stabilizer” (UNI PHARMA HOLDING AS, priority 2005, published 2008).

Assay: Organoleptic testing (taste and smell) of stabilized salmon oil
Details: after 17 months, salmon oil containing the additive
Experimental: With basis in salmon oil as a nutritional supplement, organoleptic characteristics (determination of the quality of the oil by taste and smell) are also of importance. Standardized methods for organoleptic testing were utilized: one drop of salmon oil was placed on the arm and applied in a thin layer by means of a piece of glass. After one minute the quality of the oil could be determined by taste and smell. Five different individuals were tested, once per week, to obtain independent results. […] Both smell and taste was satisfactory at this point in time, and better for fullerene, witch kept well for 600 days, than for rosemary, witch only kept for 300 days.

## c12c3c4c5c1c1c6c7c2c2c8c3c3c9c4c4c%10c5c5c1c1c6c6c%11c7c2c2c7c8c3c3c8c9c4c4c9c%10c5c5c1c1c6c6c%11c2c2c7c3c3c8c4c4c9c5c1c1c6c2c3c41 [fullerene C60]
  smell and taste of the oil: satisfactory
  user applicability of the oil: good user applicability
